Data on one substance can be found in PMC8788333.

Protein sequences, listed by entry. Tags and fused reporters are not part of them.
UniProt O02799: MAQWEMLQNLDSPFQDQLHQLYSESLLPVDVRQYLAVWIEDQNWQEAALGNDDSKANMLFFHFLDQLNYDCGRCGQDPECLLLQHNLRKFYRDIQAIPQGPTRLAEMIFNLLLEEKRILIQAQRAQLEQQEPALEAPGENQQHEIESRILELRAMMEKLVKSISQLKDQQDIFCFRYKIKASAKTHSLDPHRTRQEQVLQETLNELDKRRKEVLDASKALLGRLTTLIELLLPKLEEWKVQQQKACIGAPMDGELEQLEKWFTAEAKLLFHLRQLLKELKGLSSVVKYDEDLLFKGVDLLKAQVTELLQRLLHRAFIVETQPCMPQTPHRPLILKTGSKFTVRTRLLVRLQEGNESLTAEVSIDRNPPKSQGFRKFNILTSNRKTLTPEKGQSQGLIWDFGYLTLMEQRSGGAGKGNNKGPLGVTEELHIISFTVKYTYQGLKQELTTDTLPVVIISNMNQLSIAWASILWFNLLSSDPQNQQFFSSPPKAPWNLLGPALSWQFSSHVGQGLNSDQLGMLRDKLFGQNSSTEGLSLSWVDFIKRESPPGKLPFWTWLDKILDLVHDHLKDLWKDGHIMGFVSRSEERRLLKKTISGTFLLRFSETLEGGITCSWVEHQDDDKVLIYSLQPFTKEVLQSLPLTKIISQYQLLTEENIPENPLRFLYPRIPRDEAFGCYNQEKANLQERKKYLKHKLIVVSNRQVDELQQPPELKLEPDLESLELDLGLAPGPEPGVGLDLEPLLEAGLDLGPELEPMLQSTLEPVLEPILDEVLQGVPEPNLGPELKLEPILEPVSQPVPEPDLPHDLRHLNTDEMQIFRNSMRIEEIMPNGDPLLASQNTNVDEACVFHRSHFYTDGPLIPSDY

Results are given in words; binding and its absence hold for the method and conditions named. Binding seen in cells or lysates may run through a third protein. Some results given as binding are weak or reduced against the parent protein; the word gives no strength. Tags and fused reporters may be left off the sequences shown.

The target in this assay is T1, HA-STAT1 (porcine STAT1, HA-tagged) (porcine) (UniProt Q764M5).
T1 sequence: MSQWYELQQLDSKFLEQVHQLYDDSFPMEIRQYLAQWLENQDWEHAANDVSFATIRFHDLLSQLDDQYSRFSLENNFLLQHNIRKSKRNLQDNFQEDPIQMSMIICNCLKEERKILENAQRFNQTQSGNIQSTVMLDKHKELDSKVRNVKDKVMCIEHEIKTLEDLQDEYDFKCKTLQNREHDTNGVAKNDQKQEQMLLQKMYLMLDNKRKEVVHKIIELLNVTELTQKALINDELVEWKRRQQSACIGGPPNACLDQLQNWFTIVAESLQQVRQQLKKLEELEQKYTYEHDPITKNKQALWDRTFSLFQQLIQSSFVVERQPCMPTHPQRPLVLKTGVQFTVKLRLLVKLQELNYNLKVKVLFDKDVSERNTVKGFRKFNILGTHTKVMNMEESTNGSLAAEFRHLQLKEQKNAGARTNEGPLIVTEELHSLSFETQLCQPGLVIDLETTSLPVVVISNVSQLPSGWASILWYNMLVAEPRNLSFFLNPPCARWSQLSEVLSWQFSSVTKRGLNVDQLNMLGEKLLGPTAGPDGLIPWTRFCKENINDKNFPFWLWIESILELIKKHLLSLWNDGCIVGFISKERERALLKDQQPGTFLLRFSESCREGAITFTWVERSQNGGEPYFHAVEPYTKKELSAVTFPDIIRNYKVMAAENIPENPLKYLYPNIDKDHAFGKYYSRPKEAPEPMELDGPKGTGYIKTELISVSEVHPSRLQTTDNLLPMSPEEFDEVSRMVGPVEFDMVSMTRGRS
The assay is described as follows: co-IP.

Take “Myc-STAT2 (porcine STAT2, Myc-tagged) (from UniProt O02799 1-864)”: the binding entry is reported as “binds”.
